# PubChem BioAssay AID1671190 (National Center for Advancing Translational Sciences (NCATS), 2021)
# Amino acid sequences for entries named in this document (tags omitted).
# UniProt P18054, whole entry, looked up: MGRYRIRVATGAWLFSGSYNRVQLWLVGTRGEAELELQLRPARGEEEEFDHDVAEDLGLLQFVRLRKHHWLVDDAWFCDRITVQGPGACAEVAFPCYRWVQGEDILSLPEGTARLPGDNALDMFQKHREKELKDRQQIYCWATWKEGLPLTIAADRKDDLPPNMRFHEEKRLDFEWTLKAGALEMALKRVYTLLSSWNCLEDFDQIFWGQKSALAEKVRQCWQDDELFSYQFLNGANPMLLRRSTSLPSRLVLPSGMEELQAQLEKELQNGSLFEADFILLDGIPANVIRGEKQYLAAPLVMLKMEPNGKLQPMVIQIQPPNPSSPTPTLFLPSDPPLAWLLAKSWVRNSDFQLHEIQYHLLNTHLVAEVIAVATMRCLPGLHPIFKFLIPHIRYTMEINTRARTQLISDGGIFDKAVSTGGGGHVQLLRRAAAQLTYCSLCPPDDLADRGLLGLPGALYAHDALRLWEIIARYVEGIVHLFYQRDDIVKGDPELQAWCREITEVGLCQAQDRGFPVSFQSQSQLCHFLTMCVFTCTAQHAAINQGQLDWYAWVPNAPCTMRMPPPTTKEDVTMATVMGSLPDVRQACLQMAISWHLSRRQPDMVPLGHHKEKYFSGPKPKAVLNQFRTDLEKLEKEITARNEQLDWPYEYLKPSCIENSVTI
# Hit rate of the full screen: of about 580,000 compounds, about 6,100 (1.1%) were called active. Inconclusive results, whose numbers are uncertain, are shown with a selection of clear calls. Calls come from the whole dose curve; as a rule, active = well fitted inhibition curve with a large enough effect; inconclusive = small, poorly fitted or top-dose-only effect, or another doubt; inactive = no such curve, though single readings can be large or run the other way. Where the call is inconclusive, the potency comes from a doubtful curve fit.
# Biological target: Polyunsaturated fatty acid lipoxygenase ALOX12 (Homo sapiens) (UniProt P18054)
# Assay: Primary qHTS assay for inhibitors of human arachidonate 12S-lipoxygenase (ALOX12): Round 2
# Conditions: purified 12hLO, xylenol orange hydroperoxide absorbance; activity change, negative = inhibition: at 108 µM (top of the series) unless noted
# Outline: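 Hydroperoxide product was detected by ferrous iron/xylenol orange as the 573 to 405 nm absorbance ratio. Arachidonic acid at 40 uM (final) was turned over for 30 min at room temperature by 150 nM human 12hLO, pH 7.0 Hepes buffer, after 15 min compound preincubation.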
# % is set by controls: 0 for no effect and ±100 for the full control effect; potency is the fitted concentration of half-maximal effect.
Structure (SMILES),Potency,"activity change, negative = inhibition"
CCSC1=N/C(=C/c2ccsc2)C(=O)N1c1ccccc1,"inconclusive: 50.1 µM [inhibitor, partial curve, poor fit]",–
Cc1ccc(NC(=S)N2CCC(c3nc4ccccc4s3)CC2)cc1C,"inconclusive: 28.2 µM [inhibitor, full curve, poor fit]",–
Nc1nc(COC(=O)c2ccc(OC(F)F)cc2)nc2ccccc12,inactive,–
O=C(COC(=O)c1cncc(Br)c1)Nc1ccc(S(=O)(=O)N2CCOCC2)cc1,"inconclusive: 112 µM [inhibitor, single point]",–
COc1cc2c(cc1OC)C(C[C@H]1CN(C(=O)c3ccccc3)CC[C@H]1CC(=O)O)=NCC2,"inconclusive: 35.5 µM [inhibitor, full curve, poor fit]",–
COC(=O)[C@H]1[C@H](CO)[C@H]2Cn3c(ccc(Br)c3=O)[C@H]2N1Cc1ccccc1Cl,active: 35.5 µM,–
COc1ccc(OC)c(/C=C/c2ccc3cccc(O)c3n2)c1,"inconclusive: 39.8 µM [inhibitor, partial curve, poor fit]",–
O=C(NC1CCCN(c2cc(-c3ccc(F)cc3)[nH]n2)C1)c1nccc2ccccc12 (centres undefined),inactive,–
O=C(/C=C/c1ccc(-c2ccccc2[N+](=O)[O-])o1)c1ccccc1,inactive,–
O=C(N/N=C/c1ccc(O)c(O)c1)N/N=C/c1ccc(O)c(O)c1,"inconclusive: 0.398 µM [inhibitor, full curve, poor fit]",–
CCC(C)NC(=O)CN1C(=O)C(C)(C)c2cc(S(=O)(=O)N3CCCC3)ccc21 (centres undefined),"inconclusive: 4.47 µM [inhibitor, partial curve, poor fit]",–
Clc1ccc(-c2nc(NCCCN3CCOCC3)c3ccccc3n2)cc1,inactive,–
CC1Cc2cc(/C(O)=C3/C(=O)C(=O)N(CCN4CCOCC4)C3c3ccc(N(C)C)cc3)ccc2O1 (centres undefined),"inconclusive: 3.16 µM [inhibitor, partial curve, poor fit]",–
Cc1cccc(Nc2nnc(SCC(=O)c3ccc(Br)s3)s2)c1,"inconclusive: 12.6 µM [inhibitor, full curve, poor fit]",–
CC(C)Nc1ncnc2c1cnn2-c1ccc(Cl)cc1,inactive,–
COc1ccc(Br)cc1S(=O)(=O)Nc1ncn[nH]1,"inconclusive: 56.2 µM [inhibitor, partial curve, poor fit]",–
Cc1ccc(C(=O)Cn2c3c(sc2=N)CCCC3)cc1,"inconclusive: 35.5 µM [inhibitor, partial curve, poor fit]",–
COc1ccc(-n2cnnc2SCC(=O)NC2CCCCC2)cc1,inactive,–
O=C1CC(c2ccc(F)c(F)c2)c2ncn(-c3ccccc3)c2N1 (centres undefined),"inconclusive: 25.1 µM [inhibitor, partial curve, poor fit]",–
COc1cc(OC)c(NC(=O)N2CCN(c3ccc(=O)n(-c4ccc(F)cc4)n3)CC2)cc1Cl,inactive,–
Cc1ccc(C(=O)Oc2coc(CSc3nnc(NC(=O)C4CC4)s3)cc2=O)cc1,inactive,–
O=C(N/N=C/C=C/c1ccccc1[N+](=O)[O-])NC1CCCCC1,inactive,–

# In the list so far, 4 contain two or more sulfur atoms:
Structure (SMILES),Potency,"activity change, negative = inhibition"
CCSC1=N/C(=C/c2ccsc2)C(=O)N1c1ccccc1,"inconclusive: 50.1 µM [inhibitor, partial curve, poor fit]",–
Cc1ccc(NC(=S)N2CCC(c3nc4ccccc4s3)CC2)cc1C,"inconclusive: 28.2 µM [inhibitor, full curve, poor fit]",–
Cc1cccc(Nc2nnc(SCC(=O)c3ccc(Br)s3)s2)c1,"inconclusive: 12.6 µM [inhibitor, full curve, poor fit]",–
Cc1ccc(C(=O)Oc2coc(CSc3nnc(NC(=O)C4CC4)s3)cc2=O)cc1,inactive,–

# Later entries.

Structure (SMILES),Potency,"activity change, negative = inhibition"
CCN(CC)c1ccc(/C=C2\SC(N)=NC2=O)cc1,inactive,–
Cc1ccsc1CNCCCN(C)C,–,inconclusive: -32.7% [inhibitor]
COCCNc1oc(COc2ccc(-c3ccccc3)cc2)nc1C#N,inactive,–
COc1ccc(C(=O)NO)cc1,"inconclusive: 17.8 µM [inhibitor, full curve, poor fit]",–
COc1ccccc1OCc1ccc(C(=O)O)o1,"inconclusive: 56.2 µM [inhibitor, single point]",–
COc1ccc(CNC(=O)c2ccc3c(c2)NC(=O)CCS3)cc1OC,inactive,–
COc1ccc(S(=O)(=O)N2CCC[C@H]2C(=O)N2CCC[C@H]2C(=O)NCc2ccc(F)cc2F)cc1C,–,inconclusive: -36.6% [inhibitor]
CSc1ccc(CNC(=O)c2ccc(NC(=O)c3nsc4ccccc34)cc2)cc1,inactive,–
CSc1ccc(/C=C(/C#N)C(=O)c2c(C)[nH]c3ccccc23)cc1,"inconclusive: 5.01 µM [inhibitor, full curve, poor fit]",–
COc1ccccc1-c1nc(SCC(=O)Nc2cc(C)on2)c2c(=O)n(C)c(=O)n(C)c2n1,"inconclusive: 4.47 µM [inhibitor, partial curve, poor fit]",–
Fc1ccc(CSc2nnc(-c3ccncc3)o2)cc1,"inconclusive: 89.1 µM [inhibitor, single point]",–
Cc1cccc(-n2c(CCn3nc(C)c([N+](=O)[O-])c3C)n[nH]c2=S)c1,"inconclusive: 44.7 µM [inhibitor, partial curve, poor fit]",–
CN1CCN(CCCNC(=O)Cc2ccc(C(F)(F)F)cc2)CC1,"inconclusive: 100 µM [inhibitor, single point]",–
COc1ccc(C(=O)NCCCN2CCOCC2)cc1OC,inactive,–
COc1ccc(C(=O)Nn2c(CCC(=O)O)ccc2-c2ccc(C)cc2)cc1OC,"inconclusive: 4.47 µM [inhibitor, full curve, poor fit]",–
CCOC(=O)C1CCCN(Cc2nc(N)nc(Nc3ccc(Cl)cc3)n2)C1 (centres undefined),inactive,–
CCCNC(=O)N(C)C[C@@H]1Oc2cc(C#C[C@H](C)O)ccc2S(=O)(=O)N([C@H](C)CO)C[C@H]1C,–,inconclusive: -40.2% [inhibitor]
CCNc1ccc2oc3ccccc3c2c1,"inconclusive: 79.4 µM [inhibitor, single point]",–
CC(C)c1ccc(NC(=O)Cc2c[nH]c3ccccc23)cc1,inactive,–
Cc1ccc(CNS(=O)(=O)c2ccc(-c3cc(C(F)(F)F)on3)s2)cc1,–,inconclusive: -37.7% [inhibitor]
CCN(CC(=O)NC1CCCC1)S(=O)(=O)c1ccc(Br)cc1,"inconclusive: 63.1 µM [inhibitor, partial curve, poor fit]",–
C#CCOCCOCCOCCNc1nc(N2CCN(C(=O)[C@H](Cc3ccc(O)cc3)n3cc([C@@H](N)C(C)CC)nn3)CC2)nc(N2CCN(C(=O)[C@H](Cc3cc4ccccc4[nH]3)n3cc([C@@H](N)CC(C)C)nn3)CC2)n1 (some centres undefined),"inconclusive: 56.2 µM [inhibitor, partial curve, poor fit]",–
